Laboratory results: PubChem BioAssay AID686938 (Drosophila RNAi Screening Center, 2013)

Assay: 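Fly genes required for calcium entry once internal stores are emptied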 (primary screen)
Cells: Drosophila S2R+ cells
Reagent: long dsRNA against Drosophila genes, about 0.25 µg dsRNA per well, roughly 10,000 cells
Duration: 5 days of knock-down before the calcium assay
Conditions: thapsigargin (SERCA pump blocker) to empty calcium stores; entry signal taken 4 min after adding it
Read-out: 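Per-well fluo-4 fluorescence in two replicates, unnormalised, measured in resting cells and 4 min after store depletion by the SERCA blocker thapsigargin; ratio of the two present in few wells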
Reading the numbers: calcium entry signal: higher = stronger calcium signal after store depletion; resting calcium signal: higher = higher resting calcium signal
Active means: 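Hit if the duplicate-averaged plate z-score for entry over resting signal is under −3; wells with weak total dye signal (Fmax z < −2) or more than 5 off-targets removed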
Calls: active = strongly reduced calcium entry; inactive = no strong reduction
The deposit covers about 23,000 reagents; this is an unselected part of those that have a named target and a result. Of all reagents, 75 (0.33%) got an active call. 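Raw plate signals without normalisation; calls rest on plate z-scores that were not deposited; ratio present for only 364 wells.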 Unmarked entries are inactive. A plus sign joins genes that one reagent is predicted to hit. Not stated in the record: the dose of the treatment.

Target gene,"calcium entry signal, replicate 1 (fluorescence units)","calcium entry signal, replicate 2 (fluorescence units)","resting calcium signal, replicate 1 (fluorescence units)","resting calcium signal, replicate 2 (fluorescence units)"
jub (Ajuba LIM protein),2.68e7,3.08e7,1.29e7,1.61e7
CG3184,3.67e7,4.02e7,1.71e7,1.86e7
Atg10 + CG12822,2.11e7,2.01e7,1.09e7,1.13e7
CG11951,3.10e7,4.40e7,1.64e7,1.87e7
CG13510,3.61e7,3.91e7,1.94e7,1.78e7
LamC (Lamin C),3.36e7,4.16e7,1.51e7,2.00e7
CG2120,2.98e7,3.98e7,1.52e7,1.89e7
CG7408,3.77e7,4.65e7,1.80e7,1.81e7
